From the supplement of paper PMC12823440, “Inhibitors supercharge kinase turnover through native proteolytic circuits” (Nature, 2025)
Counter-ions that a name gives are not always drawn. Some of the results follow. Hit calls seldom repeat between salt and free forms of one compound.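 In K562 cells expressing nanoluciferase-fused kinases, luminescence was recorded at 4 h intervals between 2 and 18 h, normalized as percent of control with DMSO at 100% and a positive control at 0%. A significant (2 sigma) signal drop marks a time point as decreased. The authors' rule for a hit is not shown and takes in more than the number of time points.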

By UniProt entry, the sequences of proteins in these tests, tags left out. Where a name states a change or a piece, a line headed by the entry shows the natural chain unless it says otherwise.
UniProt P50750, whole entry: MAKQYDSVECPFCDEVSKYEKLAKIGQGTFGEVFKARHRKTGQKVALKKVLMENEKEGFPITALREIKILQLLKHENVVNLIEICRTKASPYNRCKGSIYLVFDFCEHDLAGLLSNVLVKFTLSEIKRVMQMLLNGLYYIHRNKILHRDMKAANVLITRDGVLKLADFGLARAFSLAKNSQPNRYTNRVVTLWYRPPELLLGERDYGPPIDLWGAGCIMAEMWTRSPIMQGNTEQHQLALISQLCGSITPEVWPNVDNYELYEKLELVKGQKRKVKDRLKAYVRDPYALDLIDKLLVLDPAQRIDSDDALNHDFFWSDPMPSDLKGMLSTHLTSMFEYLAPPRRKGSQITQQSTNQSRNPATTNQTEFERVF
UniProt O96017, whole entry: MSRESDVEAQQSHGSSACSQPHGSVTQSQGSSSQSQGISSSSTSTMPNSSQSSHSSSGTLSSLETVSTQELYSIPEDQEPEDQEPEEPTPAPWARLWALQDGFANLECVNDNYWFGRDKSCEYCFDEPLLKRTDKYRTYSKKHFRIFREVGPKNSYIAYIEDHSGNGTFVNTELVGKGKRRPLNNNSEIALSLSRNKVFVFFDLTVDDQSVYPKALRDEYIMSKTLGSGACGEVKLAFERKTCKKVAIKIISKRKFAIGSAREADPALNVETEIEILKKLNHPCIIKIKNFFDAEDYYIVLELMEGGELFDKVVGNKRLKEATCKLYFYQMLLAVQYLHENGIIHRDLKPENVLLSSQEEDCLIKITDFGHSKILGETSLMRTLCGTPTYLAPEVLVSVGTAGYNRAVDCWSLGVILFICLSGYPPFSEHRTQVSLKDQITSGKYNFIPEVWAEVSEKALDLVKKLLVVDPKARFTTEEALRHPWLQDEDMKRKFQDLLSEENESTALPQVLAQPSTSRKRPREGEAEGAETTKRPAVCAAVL
UniProt P41240: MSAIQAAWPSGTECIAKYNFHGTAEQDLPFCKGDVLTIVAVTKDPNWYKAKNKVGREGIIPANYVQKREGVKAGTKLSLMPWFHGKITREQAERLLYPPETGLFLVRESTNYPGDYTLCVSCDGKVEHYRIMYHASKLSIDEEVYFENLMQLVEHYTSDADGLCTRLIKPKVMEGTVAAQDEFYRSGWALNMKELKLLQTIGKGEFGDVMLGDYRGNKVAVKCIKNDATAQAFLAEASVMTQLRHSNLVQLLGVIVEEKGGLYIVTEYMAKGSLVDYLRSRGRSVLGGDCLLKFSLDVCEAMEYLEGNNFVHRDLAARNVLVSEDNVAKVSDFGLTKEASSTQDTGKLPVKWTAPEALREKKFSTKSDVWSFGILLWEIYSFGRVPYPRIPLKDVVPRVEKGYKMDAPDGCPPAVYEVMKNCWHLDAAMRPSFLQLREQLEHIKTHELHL
UniProt P48729: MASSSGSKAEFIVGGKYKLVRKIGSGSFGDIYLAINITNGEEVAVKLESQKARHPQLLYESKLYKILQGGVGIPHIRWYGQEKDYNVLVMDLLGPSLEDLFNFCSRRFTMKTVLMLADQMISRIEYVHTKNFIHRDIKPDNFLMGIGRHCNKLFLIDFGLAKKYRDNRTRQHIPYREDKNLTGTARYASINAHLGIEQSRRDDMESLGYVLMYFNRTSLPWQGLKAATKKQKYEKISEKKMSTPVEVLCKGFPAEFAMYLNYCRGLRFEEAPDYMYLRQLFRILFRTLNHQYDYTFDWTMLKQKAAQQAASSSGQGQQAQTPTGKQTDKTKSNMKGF
UniProt P48730: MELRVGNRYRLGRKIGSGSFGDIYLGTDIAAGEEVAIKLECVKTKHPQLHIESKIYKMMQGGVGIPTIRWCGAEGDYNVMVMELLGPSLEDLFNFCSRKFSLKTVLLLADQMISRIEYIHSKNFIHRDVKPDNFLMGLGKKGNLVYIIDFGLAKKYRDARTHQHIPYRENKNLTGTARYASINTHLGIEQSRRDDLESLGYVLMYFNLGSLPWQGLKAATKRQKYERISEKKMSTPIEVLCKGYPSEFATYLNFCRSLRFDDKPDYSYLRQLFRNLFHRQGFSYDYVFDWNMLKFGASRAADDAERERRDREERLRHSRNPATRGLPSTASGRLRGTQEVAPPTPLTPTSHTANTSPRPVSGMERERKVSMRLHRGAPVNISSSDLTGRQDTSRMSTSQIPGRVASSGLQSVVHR
UniProt Q08345: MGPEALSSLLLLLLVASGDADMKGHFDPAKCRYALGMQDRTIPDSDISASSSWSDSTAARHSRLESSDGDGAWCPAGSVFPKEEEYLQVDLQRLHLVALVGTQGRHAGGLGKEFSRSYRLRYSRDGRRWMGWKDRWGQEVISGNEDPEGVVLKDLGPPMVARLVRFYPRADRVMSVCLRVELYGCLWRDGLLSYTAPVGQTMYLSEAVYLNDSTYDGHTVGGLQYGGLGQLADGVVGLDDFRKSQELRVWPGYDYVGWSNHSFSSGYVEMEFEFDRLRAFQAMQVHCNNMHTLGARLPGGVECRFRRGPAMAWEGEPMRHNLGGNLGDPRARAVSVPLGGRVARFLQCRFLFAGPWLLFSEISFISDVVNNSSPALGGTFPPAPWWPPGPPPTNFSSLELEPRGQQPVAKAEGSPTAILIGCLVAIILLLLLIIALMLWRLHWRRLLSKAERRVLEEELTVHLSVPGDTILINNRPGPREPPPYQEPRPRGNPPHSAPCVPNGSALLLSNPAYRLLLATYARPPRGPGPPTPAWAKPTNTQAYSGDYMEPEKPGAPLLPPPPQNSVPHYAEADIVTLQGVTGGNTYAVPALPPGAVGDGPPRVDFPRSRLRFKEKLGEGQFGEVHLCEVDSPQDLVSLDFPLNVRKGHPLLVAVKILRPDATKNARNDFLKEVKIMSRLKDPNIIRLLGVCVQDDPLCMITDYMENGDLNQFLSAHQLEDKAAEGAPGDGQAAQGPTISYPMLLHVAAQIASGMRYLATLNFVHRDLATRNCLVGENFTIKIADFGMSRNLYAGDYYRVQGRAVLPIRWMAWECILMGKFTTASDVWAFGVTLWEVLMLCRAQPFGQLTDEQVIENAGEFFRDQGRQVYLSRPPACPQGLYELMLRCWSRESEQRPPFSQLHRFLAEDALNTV
UniProt Q9Y463, whole entry, looked up: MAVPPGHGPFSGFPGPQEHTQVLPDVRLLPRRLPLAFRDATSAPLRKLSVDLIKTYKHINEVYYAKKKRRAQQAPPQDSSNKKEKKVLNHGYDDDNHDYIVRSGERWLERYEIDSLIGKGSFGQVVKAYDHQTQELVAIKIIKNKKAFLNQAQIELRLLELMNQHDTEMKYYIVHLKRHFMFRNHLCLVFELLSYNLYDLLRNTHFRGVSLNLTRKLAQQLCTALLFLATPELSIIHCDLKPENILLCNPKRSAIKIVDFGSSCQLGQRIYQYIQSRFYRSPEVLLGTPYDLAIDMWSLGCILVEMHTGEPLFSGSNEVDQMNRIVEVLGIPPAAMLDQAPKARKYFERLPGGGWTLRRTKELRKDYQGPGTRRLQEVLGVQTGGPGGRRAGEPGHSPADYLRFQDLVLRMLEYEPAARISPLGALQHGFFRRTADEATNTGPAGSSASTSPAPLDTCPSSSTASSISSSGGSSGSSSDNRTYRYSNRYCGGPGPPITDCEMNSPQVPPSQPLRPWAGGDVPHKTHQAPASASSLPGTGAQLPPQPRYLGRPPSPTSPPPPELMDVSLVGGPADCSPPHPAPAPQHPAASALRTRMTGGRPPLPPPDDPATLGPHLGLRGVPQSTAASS
UniProt Q92630: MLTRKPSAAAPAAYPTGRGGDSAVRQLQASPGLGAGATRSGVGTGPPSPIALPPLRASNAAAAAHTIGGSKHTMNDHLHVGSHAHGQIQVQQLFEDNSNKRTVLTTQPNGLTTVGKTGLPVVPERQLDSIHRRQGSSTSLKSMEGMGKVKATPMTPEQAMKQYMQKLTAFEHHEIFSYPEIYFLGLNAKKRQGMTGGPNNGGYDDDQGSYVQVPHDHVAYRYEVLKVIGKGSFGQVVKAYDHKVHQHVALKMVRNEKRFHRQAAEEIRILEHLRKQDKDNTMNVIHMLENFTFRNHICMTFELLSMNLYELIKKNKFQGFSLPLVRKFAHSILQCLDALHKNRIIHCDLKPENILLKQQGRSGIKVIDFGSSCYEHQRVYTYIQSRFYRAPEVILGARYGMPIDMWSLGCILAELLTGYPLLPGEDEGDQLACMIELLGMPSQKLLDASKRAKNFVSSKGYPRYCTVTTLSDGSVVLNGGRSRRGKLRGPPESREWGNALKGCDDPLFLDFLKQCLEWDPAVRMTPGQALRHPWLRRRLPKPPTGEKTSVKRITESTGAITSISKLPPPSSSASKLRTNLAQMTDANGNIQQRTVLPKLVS
UniProt P29317, whole entry: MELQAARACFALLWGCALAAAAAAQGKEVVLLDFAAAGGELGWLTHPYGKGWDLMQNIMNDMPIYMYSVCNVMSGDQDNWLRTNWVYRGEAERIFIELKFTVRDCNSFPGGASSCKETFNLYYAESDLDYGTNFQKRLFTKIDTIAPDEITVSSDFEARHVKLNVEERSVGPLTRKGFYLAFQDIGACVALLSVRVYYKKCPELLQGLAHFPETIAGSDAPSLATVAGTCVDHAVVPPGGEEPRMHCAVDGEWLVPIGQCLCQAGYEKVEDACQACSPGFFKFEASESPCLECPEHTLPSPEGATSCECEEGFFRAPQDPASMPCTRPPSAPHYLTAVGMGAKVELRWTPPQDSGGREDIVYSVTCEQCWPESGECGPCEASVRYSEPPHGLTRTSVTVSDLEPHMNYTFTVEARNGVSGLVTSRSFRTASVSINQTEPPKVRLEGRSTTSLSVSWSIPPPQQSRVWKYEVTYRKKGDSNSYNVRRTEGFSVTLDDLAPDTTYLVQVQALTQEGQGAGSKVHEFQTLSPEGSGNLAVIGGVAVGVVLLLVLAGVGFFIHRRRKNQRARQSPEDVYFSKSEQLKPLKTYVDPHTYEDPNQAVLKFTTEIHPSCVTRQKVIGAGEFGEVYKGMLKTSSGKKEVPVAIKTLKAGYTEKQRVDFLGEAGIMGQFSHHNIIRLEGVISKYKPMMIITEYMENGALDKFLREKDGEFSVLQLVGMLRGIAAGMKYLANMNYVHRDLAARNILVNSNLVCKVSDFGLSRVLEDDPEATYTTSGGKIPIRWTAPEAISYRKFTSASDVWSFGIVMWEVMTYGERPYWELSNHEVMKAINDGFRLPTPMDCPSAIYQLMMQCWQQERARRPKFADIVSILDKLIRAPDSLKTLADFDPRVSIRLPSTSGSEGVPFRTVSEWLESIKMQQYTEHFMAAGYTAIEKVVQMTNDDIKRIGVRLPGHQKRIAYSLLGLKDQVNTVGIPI
UniProt Q15303, whole entry R711C: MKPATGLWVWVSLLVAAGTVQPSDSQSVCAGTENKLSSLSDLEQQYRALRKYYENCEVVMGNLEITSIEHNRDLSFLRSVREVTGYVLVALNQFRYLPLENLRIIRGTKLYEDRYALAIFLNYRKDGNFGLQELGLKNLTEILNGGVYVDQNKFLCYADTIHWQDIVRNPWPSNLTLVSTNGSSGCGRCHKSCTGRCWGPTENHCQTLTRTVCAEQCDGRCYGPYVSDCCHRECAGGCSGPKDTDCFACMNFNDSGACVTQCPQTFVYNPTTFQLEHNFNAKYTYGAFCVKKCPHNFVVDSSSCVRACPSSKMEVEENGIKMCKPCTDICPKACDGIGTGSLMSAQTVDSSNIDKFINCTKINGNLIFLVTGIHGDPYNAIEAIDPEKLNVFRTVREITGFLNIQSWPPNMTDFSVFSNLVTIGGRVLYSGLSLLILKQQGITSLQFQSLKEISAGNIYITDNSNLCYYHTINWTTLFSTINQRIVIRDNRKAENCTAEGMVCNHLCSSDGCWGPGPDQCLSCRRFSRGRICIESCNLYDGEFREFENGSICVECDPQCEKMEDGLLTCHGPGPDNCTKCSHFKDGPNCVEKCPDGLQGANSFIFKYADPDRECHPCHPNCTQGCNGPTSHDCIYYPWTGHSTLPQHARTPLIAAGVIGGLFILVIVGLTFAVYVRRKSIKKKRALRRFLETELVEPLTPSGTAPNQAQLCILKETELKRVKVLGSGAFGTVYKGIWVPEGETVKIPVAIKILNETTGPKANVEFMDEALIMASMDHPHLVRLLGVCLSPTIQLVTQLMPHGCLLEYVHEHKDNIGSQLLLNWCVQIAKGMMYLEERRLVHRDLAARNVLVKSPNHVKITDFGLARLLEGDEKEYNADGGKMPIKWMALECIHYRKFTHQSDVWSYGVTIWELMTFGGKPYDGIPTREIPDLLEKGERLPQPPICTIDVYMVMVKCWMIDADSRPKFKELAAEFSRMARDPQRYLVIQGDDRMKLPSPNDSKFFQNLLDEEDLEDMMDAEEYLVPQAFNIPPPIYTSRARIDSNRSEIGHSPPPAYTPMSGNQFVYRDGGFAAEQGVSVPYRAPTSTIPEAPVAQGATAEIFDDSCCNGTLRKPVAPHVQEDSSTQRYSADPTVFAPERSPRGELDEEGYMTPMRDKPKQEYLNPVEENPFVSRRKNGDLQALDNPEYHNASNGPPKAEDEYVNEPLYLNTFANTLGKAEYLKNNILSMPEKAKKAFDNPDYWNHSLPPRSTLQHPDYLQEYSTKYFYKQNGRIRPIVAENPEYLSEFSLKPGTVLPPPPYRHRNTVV

Columns and labels:
Test in all cases: kinase-Nluc reporter destabilization hit call (1 = scored as downregulated) (binary); higher = compound decreases kinase abundance
Settings in all cases: K562; 2-18 h
CDK7 = CDK7 (UniProt P50613)
CDK9 = CDK9 (UniProt P50750)
CHEK2 = CHEK2 (UniProt O96017)
CSF1R = CSF1R (UniProt P07333)
CSK = CSK (UniProt P41240)
CSNK1A1 = CSNK1A1 (UniProt P48729)
CSNK1D = CSNK1D (UniProt P48730)
DDR1 = DDR1 (UniProt Q08345)
DYRK1B = DYRK1B (UniProt Q9Y463)
DYRK2 = DYRK2 (UniProt Q92630)
EPHA2 = EPHA2 (UniProt P29317)
ERBB3 = ERBB3 (UniProt P21860)
[1] = molecular target: ERBB4_R711C (clone: ERBB4_mut) (UniProt Q15303)
EGFR = EGFR (UniProt P00533)
EGFR_G719S = EGFR_G719S (UniProt P00533)
EGFR_G719S_T790M = EGFR_G719S_T790M (UniProt P00533)
EGFR_L718V = EGFR_L718V (UniProt P00533)
EGFR_L858R = EGFR_L858R (UniProt P00533)
EGFR_L861Q = EGFR_L861Q (UniProt P00533)

Measured: kinase-Nluc reporter destabilization hit call

Cc1c[nH]c2nccc(Oc3c(F)cc(Nc4cc(Cl)nc(N)n4)cc3F)c12 (10 µM)
inactive: CDK7 = 0 | CDK9 = 0 | CHEK2 = 0 | CSF1R 0 | CSK 0 | CSNK1A1 = 0 | CSNK1D 0 | DDR1 = 0 | DYRK1B 0 | DYRK2 = 0 | EPHA2 = 0 | ERBB3 = 0 | [1] 0

C/C=C(/C)C(=O)O[C@H]1Cc2cc3ccc(=O)oc3cc2OC1(C)C [Decursinol angelate] (10 µM)
inactive: CDK7 = 0 | CDK9 = 0 | CHEK2 = 0 | CSF1R 0 | CSK 0 | CSNK1A1 = 0 | CSNK1D 0 | DDR1 = 0 | DYRK1B 0 | DYRK2 = 0 | EGFR 0 | EGFR_G719S 0 | EGFR_G719S_T790M 0 | EGFR_L718V 0 | EGFR_L858R 0 | EGFR_L861Q 0 | EPHA2 = 0 | ERBB3 = 0 | [1] 0

CN1CCC(Nc2ncc3ncnc(Nc4ccc(F)c(Cl)c4)c3n2)CC1 [Falnidamol] (10 µM)
inactive: CDK7 = 0 | CDK9 = 0 | CHEK2 = 0 | CSF1R 0 | CSK 0 | CSNK1A1 = 0 | CSNK1D 0 | DDR1 = 0 | DYRK1B 0 | DYRK2 = 0 | EPHA2 = 0 | ERBB3 = 0 | [1] 0

O=C1NCCc2[nH]c(-c3ccnc(-c4cnc5ccccc5c4)c3)cc21 (10 µM)
inactive: CDK7 = 0 | CDK9 = 0 | CHEK2 = 0 | CSF1R 0 | CSK 0 | CSNK1A1 = 0 | CSNK1D 0 | DDR1 = 0 | DYRK1B 0 | DYRK2 = 0 | EPHA2 = 0 | ERBB3 = 0 | [1] 0

O=c1cc(N2CCOCC2)oc2c(-c3ccccc3)cccc12 (10 µM)
inactive: CDK7 = 0 | CDK9 = 0 | CHEK2 = 0 | CSF1R 0 | CSK 0 | CSNK1A1 = 0 | CSNK1D 0 | DDR1 = 0 | DYRK1B 0 | DYRK2 = 0 | EPHA2 = 0 | ERBB3 = 0 | [1] 0

N#C/C(=C\c1ccc(O)c(O)c1)C(=O)NCCCc1ccccc1 (10 µM)
inactive: CDK7 = 0 | CDK9 = 0 | CHEK2 = 0 | CSF1R 0 | CSK 0 | CSNK1A1 = 0 | CSNK1D 0 | DDR1 = 0 | DYRK1B 0 | DYRK2 = 0 | EPHA2 = 0 | ERBB3 = 0 | [1] 0

CCN(CC)CCCCNc1ncc2cc(-c3c(Cl)cccc3Cl)c(NC(=O)NC(C)(C)C)nc2n1 (2.5 µM)
inactive: CDK7 = 0 | CDK9 = 0 | CHEK2 = 0 | CSF1R 0 | CSK 0 | CSNK1A1 = 0 | CSNK1D 0 | DDR1 = 0 | DYRK1B 0 | DYRK2 = 0 | EPHA2 = 0 | ERBB3 = 0 | [1] 0

CCOc1cc2ncc(C#N)c(Nc3ccc(OCc4ccccn4)c(Cl)c3)c2cc1NC(=O)/C=C/CN(C)C [Neratinib] (10 µM)
inactive: CDK7 = 0 | CDK9 = 0 | CHEK2 = 0 | CSF1R 0 | CSK 0 | CSNK1A1 = 0 | CSNK1D 0 | DDR1 = 0 | DYRK1B 0 | DYRK2 = 0 | EPHA2 = 0 | ERBB3 = 0 | [1] 0

CCCCOc1c(C(=O)c2c(F)cc(C)cc2F)c[nH]c2nncc1-2 (10 µM)
inactive: CDK7 = 0 | CDK9 = 0 | CHEK2 = 0 | CSF1R 0 | CSK 0 | CSNK1A1 = 0 | CSNK1D 0 | DDR1 = 0 | DYRK1B 0 | DYRK2 = 0 | EGFR 0 | EGFR_G719S 0 | EGFR_G719S_T790M 0 | EGFR_L718V 0 | EGFR_L858R 0 | EGFR_L861Q 0 | EPHA2 = 0 | ERBB3 = 0 | [1] 0

COc1cc2c(Nc3ccc(Br)cc3F)ncnc2cc1OCCn1ccnn1 (10 µM)
inactive: CDK7 = 0 | CDK9 = 0 | CHEK2 = 0 | CSF1R 0 | CSK 0 | CSNK1A1 = 0 | CSNK1D 0 | DDR1 = 0 | DYRK1B 0 | DYRK2 = 0 | EPHA2 = 0 | ERBB3 = 0 | [1] 0

COc1cc(C)c(Sc2cnc(NC(=O)c3ccc(CNC(C)C(C)(C)C)cc3)s2)cc1C(=O)N1CCN(C(C)=O)CC1 (stereo unspecified) (2.5 µM)
inactive: CDK7 = 0 | CDK9 = 0 | CHEK2 = 0 | CSF1R 0 | CSK 0 | CSNK1A1 = 0 | CSNK1D 0 | DDR1 = 0 | DYRK1B 0 | DYRK2 = 0 | EPHA2 = 0 | ERBB3 = 0 | [1] 0

Cc1cc(C(=O)Nc2cccc(C(=O)Nc3cccc(C(F)(F)F)c3)c2)on1 (10 µM)
inactive: CDK7 = 0 | CDK9 = 0 | CHEK2 = 0 | CSF1R 0 | CSK 0 | CSNK1A1 = 0 | CSNK1D 0 | DDR1 = 0 | DYRK1B 0 | DYRK2 = 0 | EGFR 0 | EGFR_G719S 0 | EGFR_G719S_T790M 0 | EGFR_L718V 0 | EGFR_L858R 0 | EGFR_L861Q 0 | EPHA2 = 0 | ERBB3 = 0 | [1] 0

CCN(CC)CCCCNc1ncc2cc(-c3cc(OC)cc(OC)c3)c(NC(=O)NC(C)(C)C)nc2n1 (10 µM)
inactive: CDK7 = 0 | CDK9 = 0 | CHEK2 = 0 | CSF1R 0 | CSK 0 | CSNK1A1 = 0 | CSNK1D 0 | DDR1 = 0 | DYRK1B 0 | DYRK2 = 0 | EPHA2 = 0 | ERBB3 = 0 | [1] 0

CCC(=O)N1CCN(c2ccc(-n3c(=O)ccc4cnc5ccc(-c6cnc7ccccc7c6)cc5c43)cc2C(F)(F)F)CC1 [Torin 1] (2 µM)
inactive: CDK7 = 0 | CDK9 = 0 | CHEK2 = 0 | CSF1R 0 | CSK 0 | CSNK1A1 = 0 | CSNK1D 0 | DDR1 = 0 | DYRK1B 0 | DYRK2 = 0 | EGFR 0 | EGFR_G719S 0 | EGFR_G719S_T790M 0 | EGFR_L718V 0 | EGFR_L858R 0 | EGFR_L861Q 0 | EPHA2 = 0 | ERBB3 = 0 | [1] 0

FC(F)(F)c1ccc(CNc2ccc(Cc3c[nH]c4ncc(Cl)cc34)cn2)cc1 (10 µM)
inactive: CDK7 = 0 | CDK9 = 0 | CHEK2 = 0 | CSF1R 0 | CSK 0 | CSNK1A1 = 0 | CSNK1D 0 | DDR1 = 0 | DYRK1B 0 | DYRK2 = 0 | EGFR 0 | EGFR_G719S 0 | EGFR_G719S_T790M 0 | EGFR_L718V 0 | EGFR_L858R 0 | EGFR_L861Q 0 | EPHA2 = 0 | ERBB3 = 0 | [1] 0

COc1cc(C=C(C#N)C(N)=O)cc(CSc2nc3ccccc3s2)c1O (10 µM)
inactive: CDK7 = 0 | CDK9 = 0 | CHEK2 = 0 | CSF1R 0 | CSK 0 | CSNK1A1 = 0 | CSNK1D 0 | DDR1 = 0 | DYRK1B 0 | DYRK2 = 0 | EPHA2 = 0 | ERBB3 = 0 | [1] 0

Cc1c[nH]c2ccccc12 [Skatole] (10 µM)
inactive: CDK7 = 0 | CDK9 = 0 | CHEK2 = 0 | CSF1R 0 | CSK 0 | CSNK1A1 = 0 | CSNK1D 0 | DDR1 = 0 | DYRK1B 0 | DYRK2 = 0 | EGFR 0 | EGFR_G719S 0 | EGFR_G719S_T790M 0 | EGFR_L718V 0 | EGFR_L858R 0 | EGFR_L861Q 0 | EPHA2 = 0 | ERBB3 = 0 | [1] 0

Cn1c(=O)c(Oc2ccc(F)cc2F)cc2cnc(NC3CCOCC3)nc21 [R1487 (Hydrochloride)] (10 µM)
inactive: CDK7 = 0 | CDK9 = 0 | CHEK2 = 0 | CSF1R 0 | CSK 0 | CSNK1A1 = 0 | CSNK1D 0 | DDR1 = 0 | DYRK1B 0 | DYRK2 = 0 | EPHA2 = 0 | ERBB3 = 0 | [1] 0

C=CC(=O)Nc1ccc2ncnc(Nc3cccc(Br)c3)c2c1 (10 µM)
inactive: CDK7 = 0 | CDK9 = 0 | CHEK2 = 0 | CSF1R 0 | CSK 0 | CSNK1A1 = 0 | CSNK1D 0 | DDR1 = 0 | DYRK1B 0 | DYRK2 = 0 | EPHA2 = 0 | ERBB3 = 0 | [1] 0

CC(C)n1cnc2c(NCc3cccc(C(F)(F)F)c3)ncnc21 [Longdaysin] (10 µM)
inactive: CDK7 = 0 | CDK9 = 0 | CHEK2 = 0 | CSF1R 0 | CSK 0 | CSNK1A1 = 0 | CSNK1D 0 | DDR1 = 0 | DYRK1B 0 | DYRK2 = 0 | EGFR 0 | EGFR_G719S 0 | EGFR_G719S_T790M 0 | EGFR_L718V 0 | EGFR_L858R 0 | EGFR_L861Q 0 | EPHA2 = 0 | ERBB3 = 0 | [1] 0

CCOc1ccn(-c2ccc(F)cc2)c(=O)c1C(=O)Nc1ccc(Oc2ccnc(N)c2Cl)c(F)c1 (10 µM)
inactive: CDK9 = 0 | CHEK2 = 0 | CSF1R 0 | CSK 0 | CSNK1A1 = 0 | CSNK1D 0 | DDR1 = 0 | DYRK1B 0 | DYRK2 = 0 | EPHA2 = 0 | ERBB3 = 0 | [1] 0
active: CDK7 = 1

COc1c(CC=C(C)C)c(O)cc2oc(=O)c(-c3ccc(O)cc3O)cc12 [Glycycoumarin] (10 µM)
inactive: CDK7 = 0 | CDK9 = 0 | CHEK2 = 0 | CSF1R 0 | CSK 0 | CSNK1A1 = 0 | CSNK1D 0 | DDR1 = 0 | DYRK1B 0 | DYRK2 = 0 | EGFR 0 | EGFR_G719S 0 | EGFR_G719S_T790M 0 | EGFR_L718V 0 | EGFR_L858R 0 | EGFR_L861Q 0 | EPHA2 = 0 | ERBB3 = 0 | [1] 0

O=C1Cc2c([nH]c3ccc(Br)cc23)-c2ncccc2N1 [1-Azakenpaullone] (10 µM)
inactive: CDK7 = 0 | CDK9 = 0 | CHEK2 = 0 | CSF1R 0 | CSK 0 | CSNK1A1 = 0 | CSNK1D 0 | DDR1 = 0 | DYRK1B 0 | DYRK2 = 0 | EPHA2 = 0 | ERBB3 = 0 | [1] 0

O=C([O-])c1ccccc1O.[Na+] [Sodium Salicylate] (10 µM)
inactive: CDK7 = 0 | CDK9 = 0 | CHEK2 = 0 | CSF1R 0 | CSK 0 | CSNK1A1 = 0 | CSNK1D 0 | DDR1 = 0 | DYRK1B 0 | DYRK2 = 0 | EGFR 0 | EGFR_G719S 0 | EGFR_G719S_T790M 0 | EGFR_L718V 0 | EGFR_L858R 0 | EGFR_L861Q 0 | EPHA2 = 0 | ERBB3 = 0 | [1] 0

No new results follow: 2 of the compounds above.
COc1c(CC=C(C)C)c(O)cc2oc(=O)c(-c3ccc(O)cc3O)cc12 [Glycycoumarin] (10 µM)
inactive: CDK7 = 0 | CDK9 = 0 | CHEK2 = 0 | CSF1R 0 | CSK 0 | CSNK1A1 = 0 | CSNK1D 0 | DDR1 = 0 | DYRK1B 0 | DYRK2 = 0 | EGFR 0 | EGFR_G719S 0 | EGFR_G719S_T790M 0 | EGFR_L718V 0 | EGFR_L858R 0 | EGFR_L861Q 0 | EPHA2 = 0 | ERBB3 = 0 | [1] 0

O=C1Cc2c([nH]c3ccc(Br)cc23)-c2ncccc2N1 [1-Azakenpaullone] (10 µM)
inactive: CDK7 = 0 | CDK9 = 0 | CHEK2 = 0 | CSF1R 0 | CSK 0 | CSNK1A1 = 0 | CSNK1D 0 | DDR1 = 0 | DYRK1B 0 | DYRK2 = 0 | EPHA2 = 0 | ERBB3 = 0 | [1] 0
